# Experimental data reported in PubChem BioAssay AID504706 (National Center for Advancing Translational Sciences (NCATS), 2011).
# Hit rate of the full screen: of about 320,000 compounds, about 200 (0.062%) were called active. These results got no clear call from the source, so the numbers are uncertain. The call rests on the fitted dose curve; in most records, active means well fitted activation curve with a large enough effect; inconclusive means small, poorly fitted or top-dose-only effect; inactive means no such curve, though single readings can be large or run the other way. Some results for these compounds are left out of this collection, so the calls shown say nothing about other tests.
# Experiment: qHTS assay for re-activators of p53 using a Luc reporter; further: nearly all actives have a fitted effect of over 45% in size
# Details: H1299 p53-A138V BP100-luciferase reporter, luminescence, 24 h
# Excerpt: The p53 tumor suppressor plays a key role in suppression of tumorigenesis and in human carcinogenesis. It is frequently found inactivated in human cancers, mainly by point mutation. These point mutations are found in a wide variety of human cancers and a majority of them affect the DNA binding domain of the protein. The point mutations either alter native p53 conformation or abolish DNA contact. Additionally, cancer cells with p53 mutations are more resistant to chemo-radiation therapies. In order to find activators to reactivate this important protein, a cell-based screen for p53-dependent luciferase-reporter expression was developed. A p53-null H1299 lung cancer cell line was stably co-transfected with a temperature sensitive p53 mutant, p53-A138V, and a p53-responsive BP100-luciferase reporter. This cell model has previously been characterized in a gene chip profiling experiment for p53 activation. […] At assay temperate, 37 deg C, basal reporter expression is very low and after the addition of detection reagent, a luminescent read-out is carried out. […]
# 5ul of 1000 cells per well are dispensed in all wells except column 4, into white solid-bottom TC-treated Kalypsys plates. […] Plates are incubated for 10 min at ambient room temperature and are then read on the ViewLux (Perkin Elmer) using a clear filter for a luminescent read-out.
# Potency means the concentration at half of the fitted maximal effect.
row,Compound,Potency
1,O=C(OC1CN2CCC1CC2)C(CO)(c1ccccc1)c1ccccc1 (stereo unspecified),inconclusive: 35.5 µM
